Some entries share one result that the patent states for a list of compounds.
Experiments:
Assay in all cases: Kinase Profiling Assay
Assay type in all cases: biochemical
Conditions in all cases: in vitro, peptide 100 μM
MAPKAP-K3(h) = target: T1, MAPKAP-K3(h) (Homo sapiens, UniProt Q16644)
T1 construct: purchased Millipore
Method: (§1) Every kinase activity measurement was conducted in duplicate.
(§2) Specifically, in these assays, a positively charged substrate is phosphorylated with a radiolabeled phosphate group from an ATP if the kinase is not inhibited by an inhibitor peptide. The positively charged substrate then is attracted to a negatively charged filter membrane, quantified with a scintillation counter, and compared to a 100% activity control.
(§3) In addition to determining the IC50 of the compound, the specificity of MK2 inhibitory peptides was assessed by examining activities of all 266 human kinases available for testing in the Millipore kinase profiling service (Table 1).

Amino acid sequences for entries named in this document (tags omitted).
UniProt Q16644, whole entry: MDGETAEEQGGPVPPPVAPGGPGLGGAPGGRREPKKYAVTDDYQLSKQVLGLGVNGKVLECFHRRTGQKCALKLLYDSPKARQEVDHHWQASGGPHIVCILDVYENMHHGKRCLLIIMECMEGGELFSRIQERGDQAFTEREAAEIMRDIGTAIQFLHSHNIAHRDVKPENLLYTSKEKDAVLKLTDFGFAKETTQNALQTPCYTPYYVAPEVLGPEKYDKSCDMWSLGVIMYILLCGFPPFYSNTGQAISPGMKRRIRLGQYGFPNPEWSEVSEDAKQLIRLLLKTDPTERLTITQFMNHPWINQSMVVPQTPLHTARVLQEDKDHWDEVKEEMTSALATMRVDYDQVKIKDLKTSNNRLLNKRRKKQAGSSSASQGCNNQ
UniProt P49137, whole entry: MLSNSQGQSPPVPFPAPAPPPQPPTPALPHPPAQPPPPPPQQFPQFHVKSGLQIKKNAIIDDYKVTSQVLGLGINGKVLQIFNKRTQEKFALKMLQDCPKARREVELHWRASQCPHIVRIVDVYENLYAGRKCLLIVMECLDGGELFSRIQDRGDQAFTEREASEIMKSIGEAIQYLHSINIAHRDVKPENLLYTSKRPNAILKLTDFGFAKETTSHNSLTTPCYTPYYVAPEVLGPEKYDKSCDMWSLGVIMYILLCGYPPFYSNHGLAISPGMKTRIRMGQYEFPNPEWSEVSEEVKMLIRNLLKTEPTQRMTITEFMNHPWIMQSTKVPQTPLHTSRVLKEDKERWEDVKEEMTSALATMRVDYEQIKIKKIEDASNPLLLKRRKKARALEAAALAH

TrkB(h) = TrkB(h) (Homo sapiens, UniProt Q16620)
Method: as §1, §2, §3

CaMKI(h) = CaMKI(h) (Homo sapiens, UniProt Q14012)
Method: as §1, §2, §3

MAPKAP-K2(h) = target: T2, MAPKAP-K2(h) (Homo sapiens, UniProt P49137)
T2 construct: purchased Millipore
Method: as §1, §2, §3

KAFAKLAARLYRKALARQLGVAA [MMI-0400]
more than 65%: inhibition of kinase activity of MK3 (MAPKAP-K3(h)) | inhibition of kinase activity of TrkB (TrkB(h)) | inhibition of kinase activity of CaMKI (CaMKI(h)) | inhibition of kinase activity of MK2 (MAPKAP-K2(h))

FAKLAARLYRKALARQLGVAA [MMI-0300]
more than 65%: inhibition of kinase activity of MK3 (MAPKAP-K3(h)) | inhibition of kinase activity of TrkB (TrkB(h)) | inhibition of kinase activity of CaMKI (CaMKI(h)) | inhibition of kinase activity of MK2 (MAPKAP-K2(h))

YARAAARQARAKALNRQLGVA (Mammal) [MMI-0200]
more than 65%: inhibition of kinase activity of MK3 (MAPKAP-K3(h)) | inhibition of kinase activity of TrkB (TrkB(h)) | inhibition of kinase activity of CaMKI (CaMKI(h)) | inhibition of kinase activity of MK2 (MAPKAP-K2(h))

HRRIKAWLKKIKALARQLGVAA (Mammal) [MMI-0500]
more than 65%: inhibition of kinase activity of MK3 (MAPKAP-K3(h)) | inhibition of kinase activity of TrkB (TrkB(h)) | inhibition of kinase activity of MK2 (MAPKAP-K2(h))
